In paper PMC12373997 one finds binding data, which are given here for four molecules.

Sequences of proteins named here, by UniProt entry; tags and fusion partners are left off.
UniProt Q99871: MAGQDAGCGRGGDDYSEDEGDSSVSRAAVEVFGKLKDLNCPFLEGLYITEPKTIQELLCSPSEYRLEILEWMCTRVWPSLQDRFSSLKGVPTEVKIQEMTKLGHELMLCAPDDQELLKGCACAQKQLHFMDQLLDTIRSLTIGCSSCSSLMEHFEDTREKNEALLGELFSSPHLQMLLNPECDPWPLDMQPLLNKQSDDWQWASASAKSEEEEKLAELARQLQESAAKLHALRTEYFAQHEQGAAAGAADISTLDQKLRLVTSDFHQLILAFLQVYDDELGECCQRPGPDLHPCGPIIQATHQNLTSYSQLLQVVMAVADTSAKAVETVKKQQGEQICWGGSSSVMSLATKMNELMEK

Results are given in words; binding and its absence hold for the method and conditions named. Binding seen in cells or lysates may run through a third protein. Here binding means that the protein was enriched with, or labelled near, the bait; the list need not be complete. For some of these results: Sequences can lack the tags named with a protein.

Common to all, as to test: co-expression and co-purification (His-affinity, SEC, anion exchange), checked by mass spectrometry and negative stain EM; four subunits co-expressed in E. coli; Ni-NTA capture through HAUS7-EGFP-HIS8 and HAUS8-HIS8 from the lysate, Superose 6 SEC, Capto HiRes Q
The target in assay [1] is T1, D. melanogaster Dgt4 (HAUS8 ortholog)-HIS8, N-clamp fragment (D. melanogaster) (UniProt Q9W4M8).
T1 sequence: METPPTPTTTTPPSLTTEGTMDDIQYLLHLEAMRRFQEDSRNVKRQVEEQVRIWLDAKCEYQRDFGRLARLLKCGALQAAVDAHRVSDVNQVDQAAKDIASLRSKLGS

Assay [2] concerns the target T2, D. melanogaster Msd5 (HAUS7 ortholog)-EGFP-HIS8, N-clamp fragment (D. melanogaster) (UniProt Q9W0G6).
T2 sequence: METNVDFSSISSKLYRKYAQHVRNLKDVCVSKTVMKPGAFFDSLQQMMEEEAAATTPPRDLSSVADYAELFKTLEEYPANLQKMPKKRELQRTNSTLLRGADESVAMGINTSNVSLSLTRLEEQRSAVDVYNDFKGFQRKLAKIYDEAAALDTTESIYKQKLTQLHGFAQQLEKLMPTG

Assay [3] concerns the target H. sapiens HAUS7-EGFP-HIS8, N-clamp fragment (H. sapiens) (UniProt Q99871).
For assay [4], the target named is T3, H. sapiens HAUS8-HIS8, N-clamp fragment (H. sapiens) (UniProt Q9BT25).
T3 sequence: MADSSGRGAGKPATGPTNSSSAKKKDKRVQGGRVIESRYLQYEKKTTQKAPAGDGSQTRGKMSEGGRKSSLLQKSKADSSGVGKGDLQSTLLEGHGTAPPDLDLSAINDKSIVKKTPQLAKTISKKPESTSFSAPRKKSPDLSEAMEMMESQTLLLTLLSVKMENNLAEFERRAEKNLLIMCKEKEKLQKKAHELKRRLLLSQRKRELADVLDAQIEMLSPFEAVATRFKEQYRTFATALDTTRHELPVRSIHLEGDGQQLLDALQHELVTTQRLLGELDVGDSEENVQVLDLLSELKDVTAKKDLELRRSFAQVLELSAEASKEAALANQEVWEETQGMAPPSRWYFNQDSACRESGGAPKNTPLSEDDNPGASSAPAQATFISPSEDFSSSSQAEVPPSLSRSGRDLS

B1: D. melanogaster Dgt6 (HAUS6 ortholog), N-clamp fragment with the CH domain (domain or fragment, UniProt Q9VAP2 1-280)
chain: MDRTIIAPWKAEEKEQSEKLHRKLQGLALVHPLPDELRKLIAWDMFLKPNQVAFVHVMHYLFRLLDPAEFKRRFFWPITDKKSEANFRSSTVEYLKHLNEKHQLHWANIKSYLVVMPGGMRFINFLLEFVGFVIQELIKQREKSLGLEAGTPNVSAKVMARQNAVMKEYASSYVVNLEENTALLRDKTQKIRRLMADLSADMGVPEEQLADDGFLDEFEATAALGVERVITQPTERKFDLEASLCGLKEAIDLFQVKQAENNQSKEAVEKALRGMRVLFD
With B1, the binding result in assay [1] and in assay [2] was “binds” throughout.

B2: H. sapiens HAUS6, N-clamp fragment (domain or fragment, UniProt Q7Z4H7 1-432)
chain: MSSASVTAFEKEHLWMYLQALGFEPGPATIACGKIVSHTHLGVNMFDKLNRDAFHIISYFLFQVLDQSLTKEVFKFCWPPFDQKSDTEFRKHCCEWIKRISGECGSSFPQVVGSLFLSPGGPKFIHLMYHFARFVAMKYIKSNSKNSSHHFVETFNIKPQDLHKCIARCHFARSRFLQILQRQDCVTQKYQENAQLSVKQVRNLRSECIGLENQIKKMEPYDDHSNMEEKIQKVRSLWASVNETLMFLEKEREVVSSVLSLVNQYALDGTNVAINIPRLLLDKIEKQMFQLHIGNVYEAGKLNLLTVIQLLNEVLKVMKYERCQADQARLTVDLHYLEKETKFQKERLSDLKHMRYRIKDDLTTIRHSVVEKQGEWHKKWKEFLGLSPFSLIKGWTPSVDLLPPMSPLSFDPASEEVYAKSILCQYPASLPD
Take B2: the binding entry in assay [3] and in assay [4] was “binds” each time.

B3: D. melanogaster Msd5 (HAUS7 ortholog)-EGFP-HIS8, N-clamp fragment (domain or fragment, UniProt Q9W0G6 1-179)
chain: T2 sequence
With B3, in assay [1], the binding result is “binds”.

B4: H. sapiens HAUS2, N-clamp fragment (domain or fragment, UniProt Q9NVX0 1-235)
chain: MAAANPWDPASAPNGAGLVLGHFIASGMVNQEMLNMSKKTVSCFVNFTRLQQITNIQAEIYQKNLEIELLKLEKDTADVVHPFFLAQKCHTLQSMNNHLEAVLKEKRSLRQRLLKPMCQENLPIEAVYHRYMVHLLELAVTFIERLETHLETIRNIPHLAANLKKMNQALAKMDILVTETEELAENILKWRKQQNEVSSCIPKILAEESYLYKHDIIMPPLPFTSKVHVQTINAK
For B4, the binding entry in assay [3] and in assay [4] was “binds” each time.
